From article PMC12376526

Chains of the proteins cited; added tags and fusions are not shown. Lines headed by an entry give the natural chain unless they say otherwise; changes in a name come on top.
UniProt E5RQA1: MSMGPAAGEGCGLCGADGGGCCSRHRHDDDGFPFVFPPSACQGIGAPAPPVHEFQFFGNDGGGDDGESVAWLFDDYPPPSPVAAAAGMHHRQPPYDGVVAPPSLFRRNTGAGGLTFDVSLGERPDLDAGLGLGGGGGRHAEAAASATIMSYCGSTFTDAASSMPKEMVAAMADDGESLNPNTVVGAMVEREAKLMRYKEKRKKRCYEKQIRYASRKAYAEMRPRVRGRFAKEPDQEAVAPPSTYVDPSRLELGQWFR

Columns and labels:
GST-Ghd7 (Oryza sativa) = GST-Ghd7 (Oryza sativa) (UniProt E5RQA1); assay: EMSA; details: increasing OsNAC42 first strengthens, then weakens binding; LightShift Chemiluminescent EMSA kit (Thermo 20148), per manufacturer; pH and temperature not …; recombinant protein; protein details: GST; label: 5' biotin
[1] = system: SUMO-NAC42-His (Oryza sativa); assay: EMSA; details: increasing Ghd7 first strengthens, then weakens binding; LightShift Chemiluminescent EMSA kit (Thermo 20148), per manufacturer; pH and temperature not stated; recombinant protein; protein details: SUMO, His; label: 5' biotin

## CTCCACATCTCTTCTCCATCAAGAATCAATCACTCGCTC (double strand) [OsChalk5 promoter probe]
GST-Ghd7 (Oryza sativa)
  binding result: binds
[1]
  binding result: binds

Construct, isoform or probe ends are uncertain for at least one entry.
